The results in this text go back to paper PMC4884786.

Chains of the proteins cited; added tags and fusions are not shown.
UniProt Q9UF56: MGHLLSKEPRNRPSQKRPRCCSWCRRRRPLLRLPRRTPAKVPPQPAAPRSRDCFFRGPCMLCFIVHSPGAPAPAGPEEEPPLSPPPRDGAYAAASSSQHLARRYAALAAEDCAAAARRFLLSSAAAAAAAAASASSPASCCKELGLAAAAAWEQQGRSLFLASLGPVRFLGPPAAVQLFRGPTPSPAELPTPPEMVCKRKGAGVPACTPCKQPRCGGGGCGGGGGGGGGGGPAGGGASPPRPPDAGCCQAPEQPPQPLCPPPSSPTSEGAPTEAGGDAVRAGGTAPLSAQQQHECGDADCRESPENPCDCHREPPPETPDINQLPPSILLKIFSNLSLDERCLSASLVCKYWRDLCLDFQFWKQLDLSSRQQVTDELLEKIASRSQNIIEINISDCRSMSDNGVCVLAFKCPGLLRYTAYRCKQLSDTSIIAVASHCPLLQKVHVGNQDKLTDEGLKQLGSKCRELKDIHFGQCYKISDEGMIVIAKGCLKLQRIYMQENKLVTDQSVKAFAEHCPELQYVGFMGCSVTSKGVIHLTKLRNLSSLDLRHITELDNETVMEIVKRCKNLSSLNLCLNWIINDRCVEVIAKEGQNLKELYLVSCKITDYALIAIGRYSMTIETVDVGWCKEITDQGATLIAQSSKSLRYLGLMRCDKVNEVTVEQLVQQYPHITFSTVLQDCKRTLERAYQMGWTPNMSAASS
UniProt P08151: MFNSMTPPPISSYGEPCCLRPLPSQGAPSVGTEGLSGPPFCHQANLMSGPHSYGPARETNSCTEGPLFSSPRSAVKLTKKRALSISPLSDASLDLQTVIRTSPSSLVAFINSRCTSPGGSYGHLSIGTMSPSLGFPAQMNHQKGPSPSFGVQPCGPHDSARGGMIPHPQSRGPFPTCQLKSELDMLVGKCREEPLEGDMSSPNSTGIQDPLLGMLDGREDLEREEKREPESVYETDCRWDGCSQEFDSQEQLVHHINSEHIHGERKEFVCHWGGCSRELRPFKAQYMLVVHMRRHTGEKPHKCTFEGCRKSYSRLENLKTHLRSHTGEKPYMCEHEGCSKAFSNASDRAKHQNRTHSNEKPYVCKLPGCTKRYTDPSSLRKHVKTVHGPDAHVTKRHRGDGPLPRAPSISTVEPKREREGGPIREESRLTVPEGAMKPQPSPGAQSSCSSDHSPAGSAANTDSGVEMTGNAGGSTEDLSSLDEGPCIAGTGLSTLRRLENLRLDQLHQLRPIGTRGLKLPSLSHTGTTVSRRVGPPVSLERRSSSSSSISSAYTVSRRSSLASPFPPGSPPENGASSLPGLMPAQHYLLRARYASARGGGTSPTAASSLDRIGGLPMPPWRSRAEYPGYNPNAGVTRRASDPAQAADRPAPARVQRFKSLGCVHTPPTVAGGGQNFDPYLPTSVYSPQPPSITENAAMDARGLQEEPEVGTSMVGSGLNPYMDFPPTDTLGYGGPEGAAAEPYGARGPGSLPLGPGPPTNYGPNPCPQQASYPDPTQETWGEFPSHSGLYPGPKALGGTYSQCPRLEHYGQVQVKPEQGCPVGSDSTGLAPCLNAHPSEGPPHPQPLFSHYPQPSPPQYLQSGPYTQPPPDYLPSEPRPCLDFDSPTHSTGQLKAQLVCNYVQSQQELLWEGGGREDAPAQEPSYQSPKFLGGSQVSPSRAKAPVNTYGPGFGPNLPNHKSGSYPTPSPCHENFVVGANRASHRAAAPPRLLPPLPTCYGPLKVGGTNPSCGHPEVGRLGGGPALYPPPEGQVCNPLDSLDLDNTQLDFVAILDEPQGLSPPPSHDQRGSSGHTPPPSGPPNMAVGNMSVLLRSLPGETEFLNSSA
UniProt P63208: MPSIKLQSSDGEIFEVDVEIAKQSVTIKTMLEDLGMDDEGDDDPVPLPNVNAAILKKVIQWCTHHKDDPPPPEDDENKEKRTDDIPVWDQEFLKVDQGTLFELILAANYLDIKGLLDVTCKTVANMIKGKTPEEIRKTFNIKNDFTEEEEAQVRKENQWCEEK

The target of test [1] is T1, Sufu (Suppressor of fused), endogenous, human cells (human (endogenous in HEK293T, PC3, DAOY)) (UniProt Q9UMX1).
T1 sequence: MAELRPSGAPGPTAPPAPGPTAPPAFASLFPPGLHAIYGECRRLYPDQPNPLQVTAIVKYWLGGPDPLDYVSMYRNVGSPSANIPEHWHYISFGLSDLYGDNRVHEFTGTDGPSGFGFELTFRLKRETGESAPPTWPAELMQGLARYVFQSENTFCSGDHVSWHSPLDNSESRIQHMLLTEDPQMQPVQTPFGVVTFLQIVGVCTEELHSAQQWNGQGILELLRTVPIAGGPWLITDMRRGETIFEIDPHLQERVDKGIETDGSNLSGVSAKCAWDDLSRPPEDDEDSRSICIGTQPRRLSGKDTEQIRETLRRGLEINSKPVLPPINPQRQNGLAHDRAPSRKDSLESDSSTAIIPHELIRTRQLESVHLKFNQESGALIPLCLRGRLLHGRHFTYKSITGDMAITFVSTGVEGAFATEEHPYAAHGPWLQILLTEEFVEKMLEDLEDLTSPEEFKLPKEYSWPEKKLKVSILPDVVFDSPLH
The test is described as follows: co-IP; endogenous Sufu immunoprecipitated: from PC3 and DAOY cells treated with MLN4924 (2 μM, 5 h), and from HEK293T cells co‐transfected with HA‐ubiquitin, Myc‐Fbxl17 and Flag‐Gli1, with MG132 (10 μM).

Test [2] deals with T2, HA‐tagged Sufu wild type (WT) (UniProt Q9UMX1).
T2 sequence: T1 sequence
The experiment in a line: co-IP; HA‐tagged Sufu immunoprecipitated from Ptch1−/− MEFs (200 μg of whole‐cell lysate), with expression of Myc‐tagged Fbxl17 or depletion of Fbxl17 by two siRNAs; Flag‐Gli1 detected.

The target of test [3] is T3, Sufu, endogenous, Ptch1−/− mouse embryonic fibroblasts (mouse (endogenous in MEFs)) (UniProt Q9Z0P7).
T3 sequence: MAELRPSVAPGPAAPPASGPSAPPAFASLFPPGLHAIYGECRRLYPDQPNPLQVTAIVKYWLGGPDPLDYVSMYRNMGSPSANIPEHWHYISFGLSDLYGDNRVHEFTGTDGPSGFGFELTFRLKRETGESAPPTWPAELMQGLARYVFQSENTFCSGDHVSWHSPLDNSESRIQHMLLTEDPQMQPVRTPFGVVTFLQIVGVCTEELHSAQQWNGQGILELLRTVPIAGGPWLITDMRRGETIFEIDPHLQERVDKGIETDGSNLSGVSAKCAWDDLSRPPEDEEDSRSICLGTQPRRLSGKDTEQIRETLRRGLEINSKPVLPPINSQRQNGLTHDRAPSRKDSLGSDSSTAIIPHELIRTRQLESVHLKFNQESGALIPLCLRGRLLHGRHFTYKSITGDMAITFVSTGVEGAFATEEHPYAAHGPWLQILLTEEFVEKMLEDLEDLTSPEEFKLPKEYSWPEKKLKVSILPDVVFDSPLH
The test is described as follows: co-IP; endogenous Sufu immunoprecipitated from cytoplasmic and nuclear extracts of Ptch1−/− MEFs expressing HA‐tagged Fbxl17.

The target in another test is T4, HA‐tagged Sufu S342/6D (UniProt Q9UMX1).
T4 sequence: T1 sequence with S342D, S346D
The test is described as follows: co-IP; HA‐Sufu (wild type, truncated fragments, point mutants) immunoprecipitated from HEK293T cells co‐transfected with Myc‐tagged Fbxl17, treated with MLN4924 (2 μM, 5 h); Myc‐Fbxl17 detected.

In the next test the target is T5, HA‐tagged Sufu S342/6A (UniProt Q9UMX1).
T5 sequence: T1 sequence with S342A, S346A
Described as above.

Another test addresses T6, HA‐tagged Sufu S352F (UniProt Q9UMX1).
T6 sequence: T1 sequence with S352F
Described as above.

In test [4] the target is T7, HA‐tagged Sufu deletion construct 350–425 (UniProt Q9UMX1).
T7 sequence: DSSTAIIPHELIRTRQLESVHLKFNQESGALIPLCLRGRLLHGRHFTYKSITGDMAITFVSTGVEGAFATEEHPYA
The test is described as above.

The target of test [5] is T2, HA‐tagged Sufu wild type (WT). Described as above.
Test [6] concerns the target T8, HA‐Sufu 350–484‐truncated mutant (UniProt Q9UMX1).
T8 sequence: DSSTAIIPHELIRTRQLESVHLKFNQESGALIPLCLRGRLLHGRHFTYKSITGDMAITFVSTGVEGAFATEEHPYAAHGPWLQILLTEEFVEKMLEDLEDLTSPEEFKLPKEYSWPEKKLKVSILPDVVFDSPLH
Described as above.

For a further test, the target named is T9, HA‐tagged Sufu S352D (UniProt Q9UMX1).
T9 sequence: T1 sequence with S352D
The description is as above.

The target of the next test is T10, Sufu 340–360 peptide.
T10 sequence (peptide): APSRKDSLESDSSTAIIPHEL
The test is described as follows: pull-down; Sufu peptides conjugated to CNBr‐activated Sepharose, incubated with lysates of HEK293T cells transfected with Myc‐tagged Fbxl17; only the target purified.

For a further test, the target named is T11, Sufu 351–372 peptide.
T11 sequence (peptide): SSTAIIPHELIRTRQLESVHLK
The description is as above.

For test [7], the target named is T12, Sufu 340–360 [S352P/T353P] peptide.
T12 sequence (peptide, phosphorylated on the residues S352 and T353): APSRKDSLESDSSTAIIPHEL
The description is as above.

Test [8] deals with T13, HA‐tagged Sufu full‐length, synthesized in vitro (UniProt Q9UMX1).
T13 sequence: T1 sequence
The experiment in a line: pull-down; in vitro synthesized HA‐tagged Sufu full length bound to Protein G–Sepharose beads (positive control), incubated with lysates of HEK293T cells transfected with Myc‐tagged Fbxl17.

For test [9], the target named is 3×Flag‐tagged Fbxl17 (F‐box and leucine‐rich repeat protein 17) (human) (UniProt Q9UF56). The test is described as follows: co-IP; Flag‐tagged F‐box proteins immunoprecipitated from HEK293T cells treated with MLN4924 (2 μM, 5 h); endogenous Sufu and Skp1 detected.

Where a chain is given by its changes, count along the chain named. No constants are given. Whether binding was seen depends on the method and setting. In cells and extracts the contact can be indirect. Some entries that bind do so weakly or less than the wild type. For some of these results: Tags and fused reporters may be left off the sequences shown.

“Fbxl17, endogenous (from UniProt Q9UF56 1-701)”: the binding result in [1] is “binds”.

Turning to “Flag‐tagged Gli1 (Glioma‐associated oncogene homolog 1) (from UniProt P08151 1-1106)”, in test [2], the binding result is listed as “binds”.

On to “HA‐tagged Fbxl17 (from UniProt Q9UF56 1-701)”, for which the binding entry in test [3] was “binds”.

Consider “Myc‐tagged Fbxl17 (from UniProt Q9UF56 1-701)”, for which the binding entry (in the test with HA‐tagged Sufu S342/6D; in the test with HA‐tagged Sufu S342/6A; with HA‐tagged Sufu S352F; in test [4]; in test [5]; in test [6]) was “binds” in each case. Moreover, the binding entry with HA‐tagged Sufu S352D was “binds”; in test [1] it was “binds”; with Sufu 340–360 peptide, “no binding”; with Sufu 351–372 peptide, “no binding”; in [7] it was “no binding”; in [8], “binds”.

For “Skp1 (S‐phase kinase‐associated protein 1) (from UniProt P63208 1-163)”, the binding entry in [9] was “binds”.
